Measured values: patent US10030058B2, “Modulating gamma-C-cytokine activity” (Bioniz, LLC, priority 2015, dated 2018)
At least one peptide structure holds a part that was inferred or is arguable (an end, a ring closure or a residue). Peptide text beside a SMILES is read from it.

How the values were obtained:
[1] = system: T-cells in HAM/TSP patient PBMC culture; test: Ex vivo spontaneous T-cell proliferation assay using HAM/TSP peripheral blood; format: cell-based, human
Method: Proliferation assays were performed on HAM/TSP patient blood samples with and without the addition of BNZ-γ. These assays evaluated the ability of BNZ-γ to block the function of cytokines, such as IL-2 and IL-15, present in the ex vivo HAM/TSP patient blood culture and prevent spontaneous T-cell proliferation in these samples.
In an ex vivo spontaneous T-cell proliferation assay, PBMC from HAM/TSP patient was cultured at 1×10(6) cells per well of a 96 well plate in RPMI-10% FCS. Increasing concentrations of BNZ-γ peptide were added to each well. As a control, an irrelevant peptide was used in similar fashion. The cells were incubated in a 37° C. CO2 incubator for 3, 4, and 6 days. The amount of 1 uCi of ^3H-thymidine was added to the cells. After an additional 6 hour incubation, cells were harvested their proliferation rate was measured. As indicated in FIG. 4A-FIG. 4D, BNZ-γ peptide inhibits the spontaneous proliferation of T-cells in HAM/TSP culture at a concentration of about 1 ug/ml.
Other immunological markers were additionally measured in this assay. The percentage of the viral specific CD8 cells was measured during the ex vivo culture using viral protein tetramers. The population of CD4+CD25+ cells, a marker of T-cell activation, as well as Ki67 staining, a marker of T-cell proliferation, was monitored in a flow cytometry assay.

IL-3 = test: PT-18β cell proliferation (WST-1 assay), IL-3 stimulated (negative control cytokine); format: cell-based; conditions: PT-18β cells, 1 nM cytokine, 1:20 or 1:50 dilution of HEK293T supernatant, 2 days
STAT5 = test: IL-15-mediated tyrosine phosphorylation of STAT5 in PT-18β cells (immunoblotting); format: cell-based, murine; conditions: PT-18β cells stimulated by IL-15, anti-phospho-STAT5 immunoblot
IL-15 = test: PT-18β cell proliferation (WST-1 assay), IL-15 stimulated; format: cell-based; conditions: PT-18β cells, 1 nM cytokine, 1:20 or 1:50 dilution of HEK293T supernatant, 2 days
IL-4 = test: PT-18β cell proliferation (WST-1 assay), IL-4 stimulated; format: cell-based; conditions: PT-18β cells, 1 nM cytokine, 1:20 or 1:50 dilution of HEK293T supernatant, 2 days
IL-9 = test: PT-18β cell proliferation (WST-1 assay), IL-9 stimulated; format: cell-based; conditions: PT-18β cells, 1 nM cytokine, 1:20 or 1:50 dilution of HEK293T supernatant, 2 days

CC[C@H](C)[C@H](N)C(=O)N[C@@H](CCCCN)C(=O)N[C@@H](CCC(=O)O)C(=O)N[C@@H](Cc1ccccc1)C(=O)N[C@@H](CC(C)C)C(=O)N[C@@H](CCC(N)=O)C(=O)N[C@@H](CCCNC(=N)N)C(=O)N[C@@H](Cc1ccccc1)C(=O)N[C@H](C(=O)N[C@@H](Cc1c[nH]cn1)C(=O)N[C@H](C(=O)N[C@H](C(=O)N[C@@H](CCC(N)=O)C(=O)N[C@@H](CO)C(=O)N[C@H](C(=O)N[C@H](C(=O)N[C@@H](CC(N)=O)C(=O)N[C@H](C(=O)N[C@@H](CO)C(=O)O)[C@@H](C)O)[C@@H](C)CC)[C@@H](C)CC)C(C)C)[C@@H](C)CC)[C@@H](C)CC [BNZ-γ, I-K-E-F-L-Q-R-F-I-H-I-V-Q-S-I-I-N-T-S] (H-IKEFLQRFIHIVQSIINTS-OH)
T-cell proliferation ([1]; HAM/TSP peripheral blood, ex vivo, FIG. 4A): inhibited
population of CD4+CD25+ cells ([1]; HAM/TSP peripheral blood, ex vivo, flow cytometry, FIG. 4B): diminished
population of CD4+Ki67 cells ([1]; HAM/TSP peripheral blood, ex vivo, flow cytometry, FIG. 4C): reduced
concentration that inhibits the spontaneous proliferation of T-cells in HAM/TSP culture ([1]; PBMC of a representative HAM/TSP patient, 3, 4 and 6 days, 3H-thymidine): about 1 ug/ml
growth-promoting activity of IL-3 (a non γc-cytokine) (IL-3): not inhibited
tyrosine phosphorylation of STAT5 (STAT5): markedly reduced
growth-promoting activity of IL-15 (IL-15): significantly (p<0.01 Student's T test) reduced
cellular proliferation stimulated by IL-4 (IL-4): not affected
growth-promoting activity of IL-9 (IL-9): significantly (p<0.01 Student's T test) reduced
